For this experiment, the target named is T1, COP1^Trp467Ala WD40 domain (Arabidopsis) (UniProt P43254).
T1 sequence: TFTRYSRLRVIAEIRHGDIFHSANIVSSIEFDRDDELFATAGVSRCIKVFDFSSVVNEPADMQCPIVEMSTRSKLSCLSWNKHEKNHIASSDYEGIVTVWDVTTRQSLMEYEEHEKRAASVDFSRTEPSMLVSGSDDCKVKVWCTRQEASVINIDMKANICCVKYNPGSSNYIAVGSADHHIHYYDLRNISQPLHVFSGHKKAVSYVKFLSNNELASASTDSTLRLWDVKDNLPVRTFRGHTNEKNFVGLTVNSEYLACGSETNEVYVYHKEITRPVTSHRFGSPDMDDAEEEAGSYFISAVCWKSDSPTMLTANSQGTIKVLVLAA
In words: condition: 1,600 μM peptide into 112 μM COP1^Trp467Ala; ITC; VP peptide (titrant, 500-3,000 μM) injected into COP1 WD40 in the cell at about 10-fold lower concentration; 150 mM NaCl, 20 mM HEPES 7.4, 2 mM BME; 25°C; one-site binding model; both purified.

Sequences of proteins named here, by UniProt entry; tags and fusion partners are left off. A change or cut given only in a name is not applied to a line headed by its entry.
UniProt O24646: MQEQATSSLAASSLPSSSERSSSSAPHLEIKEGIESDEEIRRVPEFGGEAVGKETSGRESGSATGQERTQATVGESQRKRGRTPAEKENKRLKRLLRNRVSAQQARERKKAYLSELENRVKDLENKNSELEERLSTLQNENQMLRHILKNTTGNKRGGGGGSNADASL

Results are given in words; binding and its absence hold for the method and conditions named.

Turning to EIRRVPEFGG (peptide, UniProt O24646 39-48) [HY5^39–48 VP peptide], the binding result is “no binding”.

These data come from paper PMC6745501, “Plant photoreceptors and their signaling components compete for COP1 binding via VP peptide motifs” (The EMBO Journal, 2019).
